This passage reports binding results from article PMC5293587.

Results are given in words; binding and its absence hold for the method and conditions named. Binding seen in cells or lysates may run through a third protein. These calls come from enrichment with a bait or labelling near it, and not all partners need be listed.

The target in this test is Flag-tagged HEY1 (hairy/enhancer-of-split related with YRPW motif 1). Put plainly: affinity purification with mass spectrometry; Flag-HEY1 transfected into U2OS cells; lysate in NETN buffer (20 mM Tris/HCl pH 8.0, 1 mM EDTA, 0.5% Nonidet P-40, 100 mM NaCl); anti-Flag M2 magnetic beads, 4°C, 90 min; LC-MS/MS of the immune complexes.

B1: Non-Pou Domain Containing, Octamer-Binding (NONO), endogenous (protein, UniProt Q15233 1-471)
chain: MQSNKTFNLEKQNHTPRKHHQHHHQQQHHQQQQQQPPPPPIPANGQQASSQNEGLTIDLKNFRKPGEKTFTQRSRLFVGNLPPDITEEEMRKLFEKYGKAGEVFIHKDKGFGFIRLETRTLAEIAKVELDNMPLRGKQLRVRFACHSASLTVRNLPQYVSNELLEEAFSVFGQVERAVVIVDDRGRPSGKGIVEFSGKPAARKALDRCSEGSFLLTTFPRPVTVEPMDQLDDEEGLPEKLVIKNQQFHKEREQPPRFAQPGSFEYEYAMRWKALIEMEKQQQDQVDRNIKEAREKLEMEMEAARHEHQVMLMRQDLMRRQEELRRMEELHNQEVQKRKQLELRQEEERRRREEEMRRQQEEMMRRQQEGFKGTFPDAREQEIRMGQMAMGGAMGINNRGAMPPAPVPAGTPAPPGPATMMPDGTLGLTPPTTERFGQAATMEGIGAIGGTPPAFNRAAPGAEFAPNKRRRY
As to B1, the binding result is reported as “binds”.
